Measured values as given in the supplement of paper PMC10849652.
The other results are listed elsewhere or left out.

Chains of the proteins cited; added tags and fusions are not shown. Lines headed by an entry give the natural chain unless they say otherwise; changes in a name come on top.
UniProt Q13564: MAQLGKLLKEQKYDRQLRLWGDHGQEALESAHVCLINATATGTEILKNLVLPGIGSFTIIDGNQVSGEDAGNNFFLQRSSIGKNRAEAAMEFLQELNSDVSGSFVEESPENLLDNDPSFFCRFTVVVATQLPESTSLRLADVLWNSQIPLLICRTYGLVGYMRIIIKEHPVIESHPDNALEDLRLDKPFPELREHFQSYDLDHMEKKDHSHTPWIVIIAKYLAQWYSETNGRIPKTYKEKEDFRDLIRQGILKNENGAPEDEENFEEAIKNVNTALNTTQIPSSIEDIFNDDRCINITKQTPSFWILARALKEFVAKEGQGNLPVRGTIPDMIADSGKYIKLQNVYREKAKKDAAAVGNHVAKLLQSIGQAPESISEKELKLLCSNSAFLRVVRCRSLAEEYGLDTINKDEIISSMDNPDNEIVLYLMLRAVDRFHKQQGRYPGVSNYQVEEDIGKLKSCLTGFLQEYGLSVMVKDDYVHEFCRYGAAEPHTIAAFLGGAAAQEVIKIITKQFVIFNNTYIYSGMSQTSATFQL
UniProt P53602: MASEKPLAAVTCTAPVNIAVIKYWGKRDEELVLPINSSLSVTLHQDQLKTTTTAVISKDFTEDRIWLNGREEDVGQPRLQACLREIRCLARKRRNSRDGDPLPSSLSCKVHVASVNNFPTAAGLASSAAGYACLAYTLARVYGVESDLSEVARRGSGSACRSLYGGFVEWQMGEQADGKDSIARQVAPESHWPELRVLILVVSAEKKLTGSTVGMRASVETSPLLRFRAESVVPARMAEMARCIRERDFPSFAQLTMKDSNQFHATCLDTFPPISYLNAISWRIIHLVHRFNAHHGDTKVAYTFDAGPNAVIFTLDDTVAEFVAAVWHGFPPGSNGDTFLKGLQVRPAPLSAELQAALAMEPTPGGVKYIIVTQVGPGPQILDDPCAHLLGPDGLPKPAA
UniProt Q96I59: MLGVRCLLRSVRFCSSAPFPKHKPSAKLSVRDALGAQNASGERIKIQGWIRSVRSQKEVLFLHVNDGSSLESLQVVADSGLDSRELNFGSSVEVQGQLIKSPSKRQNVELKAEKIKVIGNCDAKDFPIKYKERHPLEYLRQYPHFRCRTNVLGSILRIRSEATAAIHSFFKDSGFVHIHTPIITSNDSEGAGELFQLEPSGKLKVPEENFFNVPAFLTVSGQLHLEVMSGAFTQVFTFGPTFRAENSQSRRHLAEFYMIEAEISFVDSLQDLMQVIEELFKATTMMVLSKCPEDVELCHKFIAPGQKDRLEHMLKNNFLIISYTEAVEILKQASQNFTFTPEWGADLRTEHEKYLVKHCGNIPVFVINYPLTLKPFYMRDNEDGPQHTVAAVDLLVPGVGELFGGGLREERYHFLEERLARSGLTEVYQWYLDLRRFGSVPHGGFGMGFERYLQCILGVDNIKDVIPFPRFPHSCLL
UniProt Q6PIU2: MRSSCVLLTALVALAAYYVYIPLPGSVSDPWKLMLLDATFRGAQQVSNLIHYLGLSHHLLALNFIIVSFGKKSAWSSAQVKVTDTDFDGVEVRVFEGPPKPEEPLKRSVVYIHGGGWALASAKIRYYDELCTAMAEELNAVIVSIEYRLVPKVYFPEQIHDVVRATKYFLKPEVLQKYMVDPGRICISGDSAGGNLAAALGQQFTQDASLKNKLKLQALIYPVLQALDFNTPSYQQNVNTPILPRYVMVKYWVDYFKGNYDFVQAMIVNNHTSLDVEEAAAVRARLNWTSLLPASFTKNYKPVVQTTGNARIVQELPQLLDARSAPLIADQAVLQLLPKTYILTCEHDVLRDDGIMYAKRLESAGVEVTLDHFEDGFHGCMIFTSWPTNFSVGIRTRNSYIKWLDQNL
UniProt P55209: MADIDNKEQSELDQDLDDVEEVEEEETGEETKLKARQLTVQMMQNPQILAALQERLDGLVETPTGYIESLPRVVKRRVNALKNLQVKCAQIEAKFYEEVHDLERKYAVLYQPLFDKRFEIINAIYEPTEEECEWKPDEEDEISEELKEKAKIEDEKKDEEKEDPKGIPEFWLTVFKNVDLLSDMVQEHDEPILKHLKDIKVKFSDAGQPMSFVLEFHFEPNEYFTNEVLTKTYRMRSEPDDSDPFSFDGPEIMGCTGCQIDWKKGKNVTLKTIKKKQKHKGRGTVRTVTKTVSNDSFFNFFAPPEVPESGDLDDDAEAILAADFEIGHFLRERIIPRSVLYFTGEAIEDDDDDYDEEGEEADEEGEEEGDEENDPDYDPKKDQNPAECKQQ
UniProt Q6NZ67, whole entry, looked up: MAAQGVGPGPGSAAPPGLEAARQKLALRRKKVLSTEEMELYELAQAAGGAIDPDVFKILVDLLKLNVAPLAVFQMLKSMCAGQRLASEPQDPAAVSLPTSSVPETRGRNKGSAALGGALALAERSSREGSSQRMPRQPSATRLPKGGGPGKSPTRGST
UniProt Q969V3: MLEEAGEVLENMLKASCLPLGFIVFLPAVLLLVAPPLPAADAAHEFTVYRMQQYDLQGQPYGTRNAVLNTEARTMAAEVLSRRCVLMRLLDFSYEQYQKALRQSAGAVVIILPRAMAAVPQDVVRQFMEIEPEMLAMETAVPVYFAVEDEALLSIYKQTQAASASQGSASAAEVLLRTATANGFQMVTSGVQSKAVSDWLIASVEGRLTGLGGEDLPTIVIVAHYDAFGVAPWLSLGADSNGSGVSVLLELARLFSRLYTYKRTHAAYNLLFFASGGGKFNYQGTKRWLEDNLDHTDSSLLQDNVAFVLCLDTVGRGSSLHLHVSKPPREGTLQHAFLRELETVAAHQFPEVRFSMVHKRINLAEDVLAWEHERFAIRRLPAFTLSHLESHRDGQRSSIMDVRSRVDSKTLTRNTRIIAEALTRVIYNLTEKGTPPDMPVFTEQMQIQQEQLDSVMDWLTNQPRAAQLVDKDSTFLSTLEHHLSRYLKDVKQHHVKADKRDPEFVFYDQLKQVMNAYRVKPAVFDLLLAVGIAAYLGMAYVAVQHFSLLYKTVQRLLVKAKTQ
UniProt Q5TBK1: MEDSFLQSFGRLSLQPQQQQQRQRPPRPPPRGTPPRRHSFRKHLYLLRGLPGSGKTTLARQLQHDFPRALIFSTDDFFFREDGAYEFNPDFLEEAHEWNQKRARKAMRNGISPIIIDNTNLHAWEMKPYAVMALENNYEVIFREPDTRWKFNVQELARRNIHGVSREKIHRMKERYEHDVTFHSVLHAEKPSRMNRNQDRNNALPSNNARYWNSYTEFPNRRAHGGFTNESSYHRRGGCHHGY
UniProt Q15742: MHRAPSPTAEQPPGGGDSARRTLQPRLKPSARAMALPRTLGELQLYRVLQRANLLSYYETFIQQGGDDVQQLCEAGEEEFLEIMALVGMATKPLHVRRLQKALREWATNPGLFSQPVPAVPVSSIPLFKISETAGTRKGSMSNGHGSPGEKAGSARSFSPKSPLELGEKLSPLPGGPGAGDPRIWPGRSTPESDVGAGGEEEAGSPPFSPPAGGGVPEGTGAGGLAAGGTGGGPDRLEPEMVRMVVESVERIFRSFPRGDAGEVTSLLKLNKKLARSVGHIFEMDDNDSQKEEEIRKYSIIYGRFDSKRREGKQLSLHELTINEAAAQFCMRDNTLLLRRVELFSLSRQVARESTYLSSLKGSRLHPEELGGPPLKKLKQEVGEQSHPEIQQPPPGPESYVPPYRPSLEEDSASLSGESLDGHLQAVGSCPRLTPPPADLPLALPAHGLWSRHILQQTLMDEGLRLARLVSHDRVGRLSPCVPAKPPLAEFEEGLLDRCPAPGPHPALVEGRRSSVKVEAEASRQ
UniProt Q99836, whole entry, looked up: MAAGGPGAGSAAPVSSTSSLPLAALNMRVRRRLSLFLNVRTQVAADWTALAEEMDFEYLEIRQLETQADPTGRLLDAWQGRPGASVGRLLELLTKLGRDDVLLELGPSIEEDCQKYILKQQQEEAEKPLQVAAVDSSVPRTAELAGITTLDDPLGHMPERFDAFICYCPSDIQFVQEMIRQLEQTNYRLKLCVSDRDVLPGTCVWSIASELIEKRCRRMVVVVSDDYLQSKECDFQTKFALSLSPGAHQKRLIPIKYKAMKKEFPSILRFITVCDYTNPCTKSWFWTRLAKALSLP
UniProt G3V1V0: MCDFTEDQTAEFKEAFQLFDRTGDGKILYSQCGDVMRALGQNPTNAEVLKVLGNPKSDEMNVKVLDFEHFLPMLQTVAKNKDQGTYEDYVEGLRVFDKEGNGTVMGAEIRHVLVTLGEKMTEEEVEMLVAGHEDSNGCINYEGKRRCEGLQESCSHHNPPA
UniProt P08590, whole entry, looked up: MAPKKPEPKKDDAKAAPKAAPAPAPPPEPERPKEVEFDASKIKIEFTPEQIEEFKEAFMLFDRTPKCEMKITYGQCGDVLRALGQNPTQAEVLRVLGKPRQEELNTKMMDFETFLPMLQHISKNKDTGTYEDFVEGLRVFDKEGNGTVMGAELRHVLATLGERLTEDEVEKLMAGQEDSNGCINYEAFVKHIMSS
UniProt Q9GZZ1: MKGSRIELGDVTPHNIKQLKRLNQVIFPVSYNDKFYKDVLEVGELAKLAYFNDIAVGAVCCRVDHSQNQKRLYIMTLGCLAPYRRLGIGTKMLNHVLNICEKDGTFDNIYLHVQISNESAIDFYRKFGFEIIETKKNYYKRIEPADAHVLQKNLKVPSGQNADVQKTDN
UniProt Q9HD67, whole entry, looked up: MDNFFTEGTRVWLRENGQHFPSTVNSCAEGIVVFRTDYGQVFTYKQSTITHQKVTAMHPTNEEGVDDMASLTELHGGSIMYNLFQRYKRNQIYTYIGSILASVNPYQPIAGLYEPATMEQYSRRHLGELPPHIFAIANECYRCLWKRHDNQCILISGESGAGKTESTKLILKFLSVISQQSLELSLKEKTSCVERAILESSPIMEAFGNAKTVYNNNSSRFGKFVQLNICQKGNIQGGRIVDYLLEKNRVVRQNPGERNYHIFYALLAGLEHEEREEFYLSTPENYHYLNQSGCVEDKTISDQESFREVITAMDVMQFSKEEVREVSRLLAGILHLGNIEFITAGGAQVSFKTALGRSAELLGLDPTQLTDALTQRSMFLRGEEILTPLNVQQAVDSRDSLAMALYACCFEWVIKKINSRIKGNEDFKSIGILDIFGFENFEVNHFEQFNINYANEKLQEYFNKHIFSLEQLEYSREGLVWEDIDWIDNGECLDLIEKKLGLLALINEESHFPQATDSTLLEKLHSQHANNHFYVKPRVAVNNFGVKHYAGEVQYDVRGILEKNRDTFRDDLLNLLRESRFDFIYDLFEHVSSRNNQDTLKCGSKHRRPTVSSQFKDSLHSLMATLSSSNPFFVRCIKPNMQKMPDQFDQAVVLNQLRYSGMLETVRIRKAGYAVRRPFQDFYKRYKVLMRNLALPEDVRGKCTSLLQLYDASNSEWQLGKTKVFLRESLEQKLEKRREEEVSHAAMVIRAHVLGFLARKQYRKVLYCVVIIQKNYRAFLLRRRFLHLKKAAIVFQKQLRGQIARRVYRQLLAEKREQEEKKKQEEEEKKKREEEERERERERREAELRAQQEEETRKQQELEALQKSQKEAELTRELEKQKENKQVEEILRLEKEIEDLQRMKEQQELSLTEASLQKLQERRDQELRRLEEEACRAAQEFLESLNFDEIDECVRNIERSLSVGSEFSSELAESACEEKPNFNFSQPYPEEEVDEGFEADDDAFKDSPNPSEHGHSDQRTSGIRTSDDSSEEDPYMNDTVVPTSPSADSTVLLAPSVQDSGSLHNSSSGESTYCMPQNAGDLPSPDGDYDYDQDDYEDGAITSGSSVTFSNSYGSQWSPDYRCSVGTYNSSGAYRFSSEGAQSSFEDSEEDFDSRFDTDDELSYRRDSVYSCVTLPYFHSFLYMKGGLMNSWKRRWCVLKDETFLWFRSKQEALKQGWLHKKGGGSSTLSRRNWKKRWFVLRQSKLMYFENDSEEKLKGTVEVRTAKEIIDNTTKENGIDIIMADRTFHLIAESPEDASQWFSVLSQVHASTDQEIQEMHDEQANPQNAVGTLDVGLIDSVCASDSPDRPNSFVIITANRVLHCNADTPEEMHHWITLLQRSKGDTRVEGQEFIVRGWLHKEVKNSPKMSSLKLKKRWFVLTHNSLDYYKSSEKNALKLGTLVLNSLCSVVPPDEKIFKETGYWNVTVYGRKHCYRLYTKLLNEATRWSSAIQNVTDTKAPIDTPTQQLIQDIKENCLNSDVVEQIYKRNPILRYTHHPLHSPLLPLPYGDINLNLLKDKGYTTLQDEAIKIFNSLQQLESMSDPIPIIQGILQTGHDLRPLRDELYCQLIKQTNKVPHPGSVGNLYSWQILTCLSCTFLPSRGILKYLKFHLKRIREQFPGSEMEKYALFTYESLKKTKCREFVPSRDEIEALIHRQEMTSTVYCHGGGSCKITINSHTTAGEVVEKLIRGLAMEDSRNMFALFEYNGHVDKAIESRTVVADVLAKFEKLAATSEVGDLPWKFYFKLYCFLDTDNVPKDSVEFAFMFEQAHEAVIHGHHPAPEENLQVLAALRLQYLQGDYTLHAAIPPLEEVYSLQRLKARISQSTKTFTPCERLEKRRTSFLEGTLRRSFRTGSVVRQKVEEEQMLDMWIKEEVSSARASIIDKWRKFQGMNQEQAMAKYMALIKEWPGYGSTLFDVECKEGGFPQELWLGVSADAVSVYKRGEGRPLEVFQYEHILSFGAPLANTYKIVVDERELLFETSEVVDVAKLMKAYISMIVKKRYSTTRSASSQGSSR

Legend:
Test in all cases: log2 fold change, soluble protein after heating vs DMSO (PISA); higher = thermal stabilisation; K562 lysate, 10 uM; active = over 0.2 and 3.5 SD of the protein, either way, in both replicates (recomputed)
vemurafenib = compound: CCCS(=O)(=O)Nc1ccc(F)c(C(=O)c2c[nH]c3ncc(-c4ccc(Cl)cc4)cc23)c1F [vemurafenib]
Summary of the method: (§1)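 Quantification was by TMTpro 16plex LC-MS/MS with equalised channel sums, applied to the supernatant after 21,000xg for 90 min. Samples were crude K562 extract at 1 mg/mL protein in PBS pH 7.4 with 1 mM MgCl2, treated with 10 μM compound for 30 min, heated for 3 min across 48°C-58°C, pooled and brought to 0.5% NP-40 at 4°C. Values are log-two fold changes in thermal stability relative to solvent controls, from duplicates.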

[1] = compound: CCCS(=O)(=O)Nc1ccc(F)c(C(=O)c2c[nH]c3ncc(Cl)cc23)c1F
Summary of the method: as §1

barasertib = compound: CCN(CCCOc1ccc2c(Nc3cc(CC(=O)Nc4cccc(F)c4)[nH]n3)ncnc2c1)CCOP(=O)(O)O [barasertib]
Summary of the method: as §1

[2] = compound: CC[C@@H]1C(=O)N(C)c2cnc(Nc3ccc(C(=O)NC4CCN(C)CC4)cc3OC)nc2N1C1CCCC1
Summary of the method: as §1

volasertib = compound: CC[C@@H]1C(=O)N(C)c2cnc(Nc3ccc(C(=O)N[C@H]4CC[C@H](N5CCN(CC6CC6)CC5)CC4)cc3OC)nc2N1C(C)C [volasertib]
Summary of the method: as §1

[3] = compound: CCn1c(C(=O)N(C2CC2)C2CC2)cc2c3c(ncn3C)c(Nc3cc(C)n(C)n3)nc21
Summary of the method: as §1

[4] = compound: CCn1cc(-c2ccnc3[nH]c(-c4cccc(CN(C)C)c4)cc23)c(-c2ccc(NC(=O)N(C)C)cc2)n1
Summary of the method: as §1

[5] = compound: CN1CCC(CNc2ccc3ncc(-c4cccc(OC(F)(F)F)c4)n3n2)CC1
Summary of the method: as §1

saracatinib = compound: CN1CCN(CCOc2cc(OC3CCOCC3)c3c(Nc4c(Cl)ccc5c4OCO5)ncnc3c2)CC1 [saracatinib]
Summary of the method: as §1

sotrastaurin = compound: CN1CCN(c2nc(C3=C(c4c[nH]c5ccccc45)C(=O)NC3=O)c3ccccc3n2)CC1 [sotrastaurin]
Summary of the method: as §1

alvocidib = compound: CN1CC[C@H](c2c(O)cc(O)c3c(=O)cc(-c4ccccc4Cl)oc23)[C@H](O)C1 [alvocidib]
Summary of the method: as §1

Tubastatin A = compound: CN1CCc2c(c3ccccc3n2Cc2ccc(C(=O)NO)cc2)C1 [Tubastatin A]
Summary of the method: as §1

[6] = compound: CNC(=O)C1=CC=CC=C1NC2=NC(=NC=C2Cl)NC3=C(C=C(C=C3)N4CCOCC4)OC
Summary of the method: as §1

defactinib = compound: CNC(=O)c1ccc(Nc2ncc(C(F)(F)F)c(NCc3nccnc3N(C)S(C)(=O)=O)n2)cc1 [defactinib]
Summary of the method: as §1

[7] = compound: CNc1nc(-c2ccc3c(N)n[nH]c3c2)cc(N2C[C@@H](C(=O)NC3CCCCC3)CC[C@H]2C)n1
Summary of the method: as §1

encorafenib = compound: COC(=O)N[C@@H](C)CNc1nccc(-c2cn(C(C)C)nc2-c2cc(Cl)cc(NS(C)(=O)=O)c2F)n1 [encorafenib]
Summary of the method: as §1

[8] = compound: COC(=O)[C@H](CCSC)NC(=O)C1=C(C=C(C=C1)NC[C@H](CS)N)C2=CC=CC=C2
Summary of the method: as §1

alisertib = compound: COc1cc(Nc2ncc3c(n2)-c2ccc(Cl)cc2C(c2c(F)cccc2OC)=NC3)ccc1C(=O)O [alisertib]
Summary of the method: as §1

[9] = compound: COc1cc2nc(-c3cc(F)ccc3O)nc(N[C@@H]3CNC[C@H]3C(C)(C)O)c2cc1OC
Summary of the method: as §1

gefitinib = compound: COc1cc2ncnc(Nc3ccc(F)c(Cl)c3)c2cc1OCCCN1CCOCC1 [gefitinib]
Summary of the method: as §1

Measured: log2 fold change

NAE1 (UniProt Q13564)
inactive: vemurafenib -0.024 | [1] 0.027 | barasertib 0.002 | [2] 0.031 | volasertib -0.018 | [3] -0.039 | [4] -0.056 | [5] 0.037 | saracatinib 0.017 | sotrastaurin 0.02 | alvocidib 0.01 | Tubastatin A -0.023 | [6] 0.01 | defactinib 0.02 | [7] -0.013 | encorafenib -0.007 | [8] 0.03 | alisertib 0.004 | [9] 0.008 | gefitinib -0.026

MVD (UniProt P53602)
inactive: vemurafenib 0.006 | [1] -0.005 | barasertib 0 | [2] 0.008 | volasertib -0.022 | [3] -0.004 | [4] 0.005 | [5] -0.008 | saracatinib -0.014 | sotrastaurin -0.014 | alvocidib 0.033 | Tubastatin A -0.03 | [6] -0.032 | defactinib -0.012 | [7] 0.03 | encorafenib -0.004 | [8] 0.048 | alisertib -0.006 | [9] -0.01 | gefitinib 0.001

NARS2 (UniProt Q96I59)
inactive: vemurafenib 0.022 | [1] 0.028 | barasertib 0 | [2] -0.025 | volasertib -0.067 | [3] 0.041 | [4] -0.091 | [5] 0.027 | saracatinib 0.001 | sotrastaurin -0.024 | alvocidib 0.013 | Tubastatin A -0.157 | [6] -0.046 | defactinib 0.014 | [7] -0.04 | encorafenib -0.01 | [8] 0.039 | alisertib -0.006 | [9] -0.01 | gefitinib -0.016

MYH11 isoform 2 (UniProt P35749)
active: [4] 0.25
inactive: vemurafenib 0.027 | [1] 0.016 | barasertib 0.016 | [2] -0.011 | volasertib -0.025 | [3] 0.091 | [5] -0.033 | saracatinib 0.029 | sotrastaurin 0.002 | alvocidib -0.042 | Tubastatin A -0.069 | [6] -0.028 | defactinib -0.083 | [7] 0.031 | encorafenib -0.002 | [8] 0.07 | alisertib 0.002 | [9] -0.005 | gefitinib 0.031

NCEH1 (UniProt Q6PIU2)
inactive: vemurafenib 0.017 | [1] 0.049 | barasertib -0.012 | [2] 0.043 | volasertib 0.019 | [3] -0.021 | [4] 0.025 | [5] -0.012 | saracatinib 0.133 | sotrastaurin 0.065 | alvocidib -0.027 | Tubastatin A 0.007 | [6] 0.017 | defactinib 0.016 | [7] -0.035 | encorafenib 0.047 | [8] -0.036 | alisertib -0.077 | [9] 0 | gefitinib 0.016

NACA4P (UniProt Q9BZK3)
inactive: vemurafenib -0.011 | [1] -0.009 | barasertib -0.148 | [2] 0.085 | volasertib -0.019 | [3] -0.213 | saracatinib 0.035 | sotrastaurin 0.009 | Tubastatin A 0.105 | [6] 0.003 | defactinib 0.02 | [7] 0.074 | encorafenib 0.063 | [8] -0.111 | alisertib -0.011 | [9] 0.034 | gefitinib -0.003

NAP1L1 isoform 3 (UniProt P55209)
inactive: vemurafenib 0.323 | [1] -0.066 | barasertib 0.105 | [2] 0.015 | volasertib -0.225 | [3] -0.103 | [4] -0.514 | [5] 0.1 | saracatinib 0.042 | sotrastaurin 0.087 | alvocidib -0.203 | Tubastatin A 0.166 | [6] 0.072 | defactinib -0.155 | [7] 0.065 | encorafenib -0.115 | [8] 0.067 | alisertib 0.016 | [9] -0.061 | gefitinib 0.125

MZT2B (UniProt Q6NZ67)
inactive: vemurafenib 0.011 | [1] 0.077 | barasertib 0.19 | [2] 0.035 | volasertib 0.103 | [3] 0.005 | [4] -0.031 | [5] 0.094 | sotrastaurin -0.004 | alvocidib -0.037 | Tubastatin A 0.001 | [6] 0.007 | defactinib 0.14 | encorafenib -0.035 | [8] -0.145 | alisertib -0.031 | [9] -0.089 | gefitinib 0.032

NCLN (UniProt Q969V3)
inactive: vemurafenib 0.001 | [1] 0.01 | barasertib 0.022 | [2] 0 | volasertib -0.009 | [3] -0.012 | [4] -0.052 | [5] -0.009 | saracatinib 0.009 | sotrastaurin 0.017 | alvocidib 0.018 | Tubastatin A -0.003 | [6] -0.012 | defactinib 0.011 | [7] -0.004 | encorafenib 0.029 | [8] -0.023 | alisertib 0.028 | [9] -0.079 | gefitinib -0.003

N4BP2L1 (UniProt Q5TBK1)
inactive: vemurafenib 0.144 | [1] 0.021 | barasertib 0.02 | [2] -0.119 | volasertib 0.026 | [4] -0.305 | [5] 0.054 | alvocidib -0.147 | defactinib -0.269 | encorafenib -0.012 | [8] 0.053 | alisertib 0.055 | [9] -0.017 | gefitinib 0.087

NAB2 (UniProt Q15742)
inactive: vemurafenib 0.06 | barasertib 0.009 | [2] 0 | [4] 0.114 | [5] 0.016 | saracatinib 0.135 | sotrastaurin 0.019 | alvocidib -0.005 | [6] 0.113 | defactinib 0.029 | [7] -0.013 | encorafenib -0.02 | [8] 0.033 | alisertib 0.003 | gefitinib -0.015

MYD88 isoform 6 (UniProt Q99836)
inactive: vemurafenib -0.031 | [1] 0.01 | barasertib -0.002 | [2] -0.042 | volasertib -0.075 | [3] 0.022 | [4] -0.009 | [5] -0.013 | saracatinib 0.009 | sotrastaurin 0.05 | alvocidib 0 | Tubastatin A -0.216 | [6] -0.006 | defactinib 0.013 | [7] 0.001 | encorafenib 0.003 | [8] -0.003 | alisertib 0.021 | [9] -0.005 | gefitinib -0.039

MYL6 (UniProt G3V1V0)
inactive: vemurafenib 0.059 | [1] 0.035 | [2] 0.042 | volasertib 0.052 | [3] -0.162 | [4] -0.054 | [5] -0.182 | saracatinib -0.018 | sotrastaurin 0.057 | alvocidib -0.009 | Tubastatin A 0.073 | [6] -0.005 | defactinib -0.013 | [7] 0.02 | encorafenib 0.162 | [8] -0.161 | alisertib 0.023 | [9] 0.001 | gefitinib -0.169

NAA15, A0A0B4J1W3
inactive: vemurafenib -0.055 | [1] 0.007 | barasertib -0.017 | [2] -0.101 | volasertib -0.021 | [3] 0.059 | [4] -0.004 | [5] 0.012 | saracatinib -0.054 | sotrastaurin 0.035 | alvocidib -0.001 | Tubastatin A -0.104 | [6] -0.031 | defactinib 0.018 | [7] -0.054 | encorafenib 0.036 | [8] 0.04 | [9] -0.032

MYL3 (UniProt P08590)
inactive: vemurafenib 0.026 | [1] 0.027 | barasertib 0.143 | [2] 0.071 | volasertib 0.04 | [3] -0.018 | [4] 0.118 | [5] -0.112 | sotrastaurin -0.044 | alvocidib 0.047 | Tubastatin A 0.023 | [6] -0.046 | defactinib -0.009 | encorafenib 0.012 | [8] -0.035 | alisertib 0.028 | [9] -0.014 | gefitinib -0.119

NAA50 (UniProt Q9GZZ1)
inactive: vemurafenib -0.002 | [1] 0.009 | barasertib -0.004 | [2] 0.017 | volasertib -0.005 | [3] 0.054 | [4] -0.062 | [5] 0.014 | saracatinib -0.004 | sotrastaurin 0.019 | alvocidib 0.03 | Tubastatin A -0.062 | [6] 0.012 | defactinib -0.017 | [7] 0.03 | encorafenib -0.066 | [8] -0.002 | alisertib -0.012 | [9] 0.017 | gefitinib -0.038

MYO10 (UniProt Q9HD67)
inactive: vemurafenib 0.483 | barasertib 0.171 | [3] -0.185 | [5] -0.381 | sotrastaurin -0.287 | alvocidib 0.048 | Tubastatin A 0.211 | [6] -0.012 | defactinib -0.106 | alisertib 0.021 | gefitinib 0.087
active: [4] 1.26
